From the supplement of paper PMC10849652
This is one part of the list.

Amino acid sequences for entries named in this document (tags omitted). A change or cut given only in a name is not applied to a line headed by its entry.
UniProt Q9ULI4: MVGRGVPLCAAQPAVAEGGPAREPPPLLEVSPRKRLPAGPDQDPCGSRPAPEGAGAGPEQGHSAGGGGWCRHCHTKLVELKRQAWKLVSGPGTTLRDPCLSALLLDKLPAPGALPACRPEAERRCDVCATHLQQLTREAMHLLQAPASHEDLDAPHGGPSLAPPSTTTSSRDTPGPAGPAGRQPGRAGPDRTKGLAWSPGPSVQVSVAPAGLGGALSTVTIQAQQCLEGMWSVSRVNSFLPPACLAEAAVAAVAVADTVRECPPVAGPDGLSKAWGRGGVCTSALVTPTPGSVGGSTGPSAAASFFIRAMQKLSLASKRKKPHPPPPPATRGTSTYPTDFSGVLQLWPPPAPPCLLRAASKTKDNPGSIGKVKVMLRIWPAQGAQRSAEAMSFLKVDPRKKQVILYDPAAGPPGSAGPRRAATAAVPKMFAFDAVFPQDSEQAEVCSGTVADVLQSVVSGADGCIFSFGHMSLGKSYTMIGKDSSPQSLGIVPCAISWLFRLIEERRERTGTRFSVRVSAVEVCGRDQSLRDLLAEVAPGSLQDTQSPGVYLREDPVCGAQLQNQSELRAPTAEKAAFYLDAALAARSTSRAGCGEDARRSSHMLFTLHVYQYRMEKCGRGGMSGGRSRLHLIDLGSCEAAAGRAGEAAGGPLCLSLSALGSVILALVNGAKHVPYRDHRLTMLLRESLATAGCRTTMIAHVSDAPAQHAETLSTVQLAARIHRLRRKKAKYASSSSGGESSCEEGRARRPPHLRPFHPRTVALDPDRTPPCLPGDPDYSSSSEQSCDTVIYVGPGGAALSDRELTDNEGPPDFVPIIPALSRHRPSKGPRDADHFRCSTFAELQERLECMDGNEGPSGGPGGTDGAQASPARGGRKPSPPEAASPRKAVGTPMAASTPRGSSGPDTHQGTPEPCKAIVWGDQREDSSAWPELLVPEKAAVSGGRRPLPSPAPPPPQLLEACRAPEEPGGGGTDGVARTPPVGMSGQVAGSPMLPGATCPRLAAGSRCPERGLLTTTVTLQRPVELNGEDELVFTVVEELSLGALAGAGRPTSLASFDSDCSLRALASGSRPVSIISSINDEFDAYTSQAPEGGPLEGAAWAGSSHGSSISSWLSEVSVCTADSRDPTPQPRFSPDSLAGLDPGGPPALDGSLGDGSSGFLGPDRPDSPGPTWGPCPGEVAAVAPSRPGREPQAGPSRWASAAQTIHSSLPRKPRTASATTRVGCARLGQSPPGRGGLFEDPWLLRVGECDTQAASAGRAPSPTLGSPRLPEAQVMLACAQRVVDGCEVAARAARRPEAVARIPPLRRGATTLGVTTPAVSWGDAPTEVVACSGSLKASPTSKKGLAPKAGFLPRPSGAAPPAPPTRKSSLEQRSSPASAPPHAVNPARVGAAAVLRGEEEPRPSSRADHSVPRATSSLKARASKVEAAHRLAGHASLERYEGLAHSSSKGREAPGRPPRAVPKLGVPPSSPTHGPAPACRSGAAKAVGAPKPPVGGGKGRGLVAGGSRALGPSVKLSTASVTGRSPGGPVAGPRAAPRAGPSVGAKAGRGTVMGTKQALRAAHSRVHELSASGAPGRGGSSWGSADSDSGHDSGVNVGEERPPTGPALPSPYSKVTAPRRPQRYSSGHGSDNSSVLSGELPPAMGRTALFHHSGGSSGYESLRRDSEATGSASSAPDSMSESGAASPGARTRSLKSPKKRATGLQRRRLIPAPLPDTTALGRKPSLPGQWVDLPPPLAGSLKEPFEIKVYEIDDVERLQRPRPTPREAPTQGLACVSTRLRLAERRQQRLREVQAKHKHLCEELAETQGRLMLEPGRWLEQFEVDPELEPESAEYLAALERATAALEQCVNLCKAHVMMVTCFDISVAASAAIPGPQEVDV
UniProt Q13351: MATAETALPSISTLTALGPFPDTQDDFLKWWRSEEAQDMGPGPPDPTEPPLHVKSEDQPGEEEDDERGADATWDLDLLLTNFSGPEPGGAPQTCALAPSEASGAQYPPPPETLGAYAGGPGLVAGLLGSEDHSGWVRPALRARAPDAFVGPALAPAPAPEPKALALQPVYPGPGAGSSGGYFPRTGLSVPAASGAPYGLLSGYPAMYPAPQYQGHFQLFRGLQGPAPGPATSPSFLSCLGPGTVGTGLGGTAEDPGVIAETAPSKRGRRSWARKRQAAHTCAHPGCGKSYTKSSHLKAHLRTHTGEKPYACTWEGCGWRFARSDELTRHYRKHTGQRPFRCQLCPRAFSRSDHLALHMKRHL
UniProt Q53GT1: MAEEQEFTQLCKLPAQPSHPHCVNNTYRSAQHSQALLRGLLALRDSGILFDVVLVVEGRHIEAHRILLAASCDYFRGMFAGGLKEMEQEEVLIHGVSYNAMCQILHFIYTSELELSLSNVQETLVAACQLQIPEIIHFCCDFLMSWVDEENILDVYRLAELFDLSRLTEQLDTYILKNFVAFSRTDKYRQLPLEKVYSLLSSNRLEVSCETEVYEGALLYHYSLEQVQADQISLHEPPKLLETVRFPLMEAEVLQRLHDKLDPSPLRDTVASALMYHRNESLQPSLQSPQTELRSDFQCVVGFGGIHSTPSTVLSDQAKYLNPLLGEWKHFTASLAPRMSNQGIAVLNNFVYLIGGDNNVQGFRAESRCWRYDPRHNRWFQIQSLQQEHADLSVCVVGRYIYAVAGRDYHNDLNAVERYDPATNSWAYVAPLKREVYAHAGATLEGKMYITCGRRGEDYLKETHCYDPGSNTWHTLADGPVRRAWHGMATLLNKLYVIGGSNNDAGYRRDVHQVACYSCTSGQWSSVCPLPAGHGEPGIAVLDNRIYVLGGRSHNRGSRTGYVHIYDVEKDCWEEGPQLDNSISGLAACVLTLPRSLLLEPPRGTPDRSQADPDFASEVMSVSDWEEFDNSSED
UniProt Q8IXQ5, whole entry, looked up: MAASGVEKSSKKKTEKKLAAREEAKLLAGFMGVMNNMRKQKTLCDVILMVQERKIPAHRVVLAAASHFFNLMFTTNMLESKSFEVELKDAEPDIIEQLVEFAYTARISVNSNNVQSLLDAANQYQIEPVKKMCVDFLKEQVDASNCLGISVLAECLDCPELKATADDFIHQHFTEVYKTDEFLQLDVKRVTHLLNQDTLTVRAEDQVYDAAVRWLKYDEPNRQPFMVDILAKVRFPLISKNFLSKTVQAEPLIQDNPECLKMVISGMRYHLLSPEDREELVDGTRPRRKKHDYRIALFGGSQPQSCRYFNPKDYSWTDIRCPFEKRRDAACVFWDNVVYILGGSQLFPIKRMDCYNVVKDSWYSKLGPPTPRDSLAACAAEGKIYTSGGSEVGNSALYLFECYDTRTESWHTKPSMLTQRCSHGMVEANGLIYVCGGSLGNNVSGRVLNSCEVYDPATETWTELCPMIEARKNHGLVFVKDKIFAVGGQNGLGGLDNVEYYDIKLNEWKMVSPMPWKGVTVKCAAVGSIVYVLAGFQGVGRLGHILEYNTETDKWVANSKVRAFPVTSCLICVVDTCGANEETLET
UniProt P13473: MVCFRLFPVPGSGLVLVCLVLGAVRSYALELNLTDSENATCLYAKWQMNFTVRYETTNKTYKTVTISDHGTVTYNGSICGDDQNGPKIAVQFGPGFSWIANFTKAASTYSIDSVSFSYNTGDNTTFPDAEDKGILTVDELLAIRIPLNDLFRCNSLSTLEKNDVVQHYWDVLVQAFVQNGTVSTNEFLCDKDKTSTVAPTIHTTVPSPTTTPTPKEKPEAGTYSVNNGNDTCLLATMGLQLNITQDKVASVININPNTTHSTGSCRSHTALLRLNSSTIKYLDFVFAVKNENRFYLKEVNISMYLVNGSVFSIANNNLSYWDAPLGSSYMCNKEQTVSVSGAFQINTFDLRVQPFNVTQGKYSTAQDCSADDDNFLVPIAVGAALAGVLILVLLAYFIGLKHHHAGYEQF
UniProt Q07866: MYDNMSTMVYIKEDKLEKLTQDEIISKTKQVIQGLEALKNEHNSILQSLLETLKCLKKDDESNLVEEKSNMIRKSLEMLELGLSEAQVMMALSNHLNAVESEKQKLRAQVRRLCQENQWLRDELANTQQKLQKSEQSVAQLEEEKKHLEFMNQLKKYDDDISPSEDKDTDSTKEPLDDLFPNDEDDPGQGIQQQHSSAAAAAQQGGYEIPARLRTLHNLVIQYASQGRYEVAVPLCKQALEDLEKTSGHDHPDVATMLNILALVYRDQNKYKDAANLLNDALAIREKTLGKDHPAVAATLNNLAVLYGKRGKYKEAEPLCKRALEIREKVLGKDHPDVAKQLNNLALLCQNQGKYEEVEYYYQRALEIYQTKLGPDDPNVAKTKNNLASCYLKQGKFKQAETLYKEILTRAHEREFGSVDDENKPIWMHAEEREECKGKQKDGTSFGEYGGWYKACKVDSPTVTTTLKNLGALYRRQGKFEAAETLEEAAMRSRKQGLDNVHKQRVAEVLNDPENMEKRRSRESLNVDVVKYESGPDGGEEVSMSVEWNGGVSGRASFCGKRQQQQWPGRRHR
UniProt Q8N6L1: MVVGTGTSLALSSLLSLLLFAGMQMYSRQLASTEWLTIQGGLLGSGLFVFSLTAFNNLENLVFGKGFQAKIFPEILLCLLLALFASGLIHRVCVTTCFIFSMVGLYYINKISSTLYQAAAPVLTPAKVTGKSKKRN
UniProt Q9Y2U9: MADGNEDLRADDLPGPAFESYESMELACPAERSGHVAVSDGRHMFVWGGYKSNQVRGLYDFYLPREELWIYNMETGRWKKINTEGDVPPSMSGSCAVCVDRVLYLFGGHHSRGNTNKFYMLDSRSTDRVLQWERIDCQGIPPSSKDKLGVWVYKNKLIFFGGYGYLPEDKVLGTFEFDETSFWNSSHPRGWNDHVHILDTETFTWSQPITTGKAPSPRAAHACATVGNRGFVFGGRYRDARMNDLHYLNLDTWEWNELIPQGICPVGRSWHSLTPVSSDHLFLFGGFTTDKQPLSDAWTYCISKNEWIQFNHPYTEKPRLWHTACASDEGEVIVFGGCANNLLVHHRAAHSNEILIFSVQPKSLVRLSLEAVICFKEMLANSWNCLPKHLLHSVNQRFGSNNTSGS
UniProt O15037: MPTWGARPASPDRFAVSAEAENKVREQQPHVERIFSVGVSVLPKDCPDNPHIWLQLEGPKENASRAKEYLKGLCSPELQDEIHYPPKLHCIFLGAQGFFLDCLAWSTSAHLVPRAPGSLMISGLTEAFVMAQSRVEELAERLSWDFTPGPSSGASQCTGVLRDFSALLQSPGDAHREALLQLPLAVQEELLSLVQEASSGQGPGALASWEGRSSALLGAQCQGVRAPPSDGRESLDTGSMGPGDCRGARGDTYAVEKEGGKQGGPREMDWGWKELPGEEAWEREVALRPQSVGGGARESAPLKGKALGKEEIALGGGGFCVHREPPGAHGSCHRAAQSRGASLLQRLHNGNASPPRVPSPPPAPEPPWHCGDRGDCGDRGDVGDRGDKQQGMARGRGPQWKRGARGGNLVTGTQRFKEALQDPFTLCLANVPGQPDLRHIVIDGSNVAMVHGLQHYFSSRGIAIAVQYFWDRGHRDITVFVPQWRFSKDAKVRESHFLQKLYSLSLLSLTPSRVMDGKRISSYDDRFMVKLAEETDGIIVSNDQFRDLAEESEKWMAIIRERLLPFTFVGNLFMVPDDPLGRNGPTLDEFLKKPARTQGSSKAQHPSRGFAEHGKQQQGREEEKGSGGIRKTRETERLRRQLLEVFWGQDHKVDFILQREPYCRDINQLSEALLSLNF
UniProt Q9BVG8: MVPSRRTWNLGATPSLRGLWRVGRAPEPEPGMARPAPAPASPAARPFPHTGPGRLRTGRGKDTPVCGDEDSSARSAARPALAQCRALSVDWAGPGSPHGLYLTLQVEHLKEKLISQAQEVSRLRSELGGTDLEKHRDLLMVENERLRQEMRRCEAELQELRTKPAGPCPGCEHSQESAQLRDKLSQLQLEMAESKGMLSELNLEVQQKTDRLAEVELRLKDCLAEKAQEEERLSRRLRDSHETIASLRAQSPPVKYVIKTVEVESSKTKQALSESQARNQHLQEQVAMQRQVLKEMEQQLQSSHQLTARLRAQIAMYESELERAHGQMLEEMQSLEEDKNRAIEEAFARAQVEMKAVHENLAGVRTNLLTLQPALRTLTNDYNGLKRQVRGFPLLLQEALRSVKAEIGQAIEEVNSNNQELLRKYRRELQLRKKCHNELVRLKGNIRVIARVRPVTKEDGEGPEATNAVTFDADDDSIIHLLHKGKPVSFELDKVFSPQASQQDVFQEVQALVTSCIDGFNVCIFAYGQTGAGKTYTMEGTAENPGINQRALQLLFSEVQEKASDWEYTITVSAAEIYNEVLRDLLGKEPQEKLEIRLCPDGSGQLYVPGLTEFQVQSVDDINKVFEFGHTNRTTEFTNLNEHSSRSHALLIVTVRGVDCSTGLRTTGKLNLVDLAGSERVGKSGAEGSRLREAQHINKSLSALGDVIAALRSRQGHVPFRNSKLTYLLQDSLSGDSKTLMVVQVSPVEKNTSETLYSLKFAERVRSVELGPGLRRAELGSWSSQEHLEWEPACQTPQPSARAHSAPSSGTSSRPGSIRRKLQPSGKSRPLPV

Tests used:
Test in all cases: log2 fold change, soluble protein after heating vs DMSO (PISA); higher = thermal stabilisation; K562 lysate, 10 uM; active = over 0.2 and 3.5 SD of the protein, either way, in both replicates (recomputed)
erlotinib = compound: C#Cc1cccc(Nc2ncnc3cc(OCCOC)c(OCCOC)cc23)c1 [erlotinib]
Procedure, shortened: (§1)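 Soluble protein was defined as the supernatant remaining after 21,000xg for 90 min, following pooling of heated aliquots and adjustment to 0.5% NP-40 at 4°C. Before that, crude K562 extract at 1 mg/mL protein in PBS pH 7.4 with 1 mM MgCl2 was treated with 10 μM compound for 30 min and heated for 3 min across 48°C-58°C. Quantification used TMTpro 16plex LC-MS/MS with channel sums equalised, and values are log-two fold changes in thermal stability relative to solvent controls from duplicates.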

[1] = compound: C/C(=N\NC(=O)C1=CC(=CC=C1)S(=O)(=O)N2CCOCC2)/C3=C(C=CC(=C3)Cl)O
Procedure, shortened: as §1

[2] = compound: C1=CC(=CC=C1C2=NC3=C(N2)C=C(C=C3)C(=O)N)OC4=CC=C(C=C4)Cl
Procedure, shortened: as §1

[3] = compound: C1=CC2=C(C=CC(=C2)/C=C\3/C(=O)NC(=NCC4=CC=CS4)S3)N=C1
Procedure, shortened: as §1

[4] = compound: C1=CC2=NC=CN=C2C=C1/C=C/3\C(=O)NC(=O)S3
Procedure, shortened: as §1

[5] = compound: C1=CC=C(C=C1)C2=NC(=C(N2)C3=CC=NC=C3)C4=CC(=C(C=C4)Cl)O
Procedure, shortened: as §1

[6] = compound: C1=CC=C2C(=C1)C3=NNC4=CC=CC(=C43)C2=O
Procedure, shortened: as §1

[7] = compound: C1CCN(C1)C(=O)NC2=CC=CC(=C2)NC3=NC=C(C(=N3)NCCC4=CN=CN4)Br
Procedure, shortened: as §1

[8] = compound: C1CN(CCC1(CC2=CC=C(C=C2)Cl)N)C3=NC=NC4=C3C=CN4
Procedure, shortened: as §1

IRAK-1-4 Inhibitor I = compound: C1COCCN1CCN2C3=CC=CC=C3N=C2NC(=O)C4=CC(=CC=C4)[N+](=O)[O-] [IRAK-1-4 Inhibitor I]
Procedure, shortened: as §1

ibrutinib = compound: C=CC(=O)N1CCC[C@@H](n2nc(-c3ccc(Oc4ccccc4)cc3)c3c(N)ncnc32)C1 [ibrutinib]
Procedure, shortened: as §1

[9] = compound: CC(=O)c1cnc2ccc(-c3cc(Cl)c(O)c(Cl)c3)nc2c1N[C@H]1CC[C@H](CN(C)C)CC1
Procedure, shortened: as §1

ralimetinib = compound: CC(C)(C)Cn1c(N)nc2ccc(-c3[nH]c(C(C)(C)C)nc3-c3ccc(F)cc3)nc21 [ralimetinib]
Procedure, shortened: as §1

[10] = compound: CC(C)(O)CC(=O)NCCn1ccc2ncnc(Nc3ccc(Oc4cccc(C(F)(F)F)c4)c(Cl)c3)c21
Procedure, shortened: as §1

[11] = compound: CC(C)C1=C2N=C(C=C(N2N=C1)NCC3=CC=CC=C3)NCCCCCCN
Procedure, shortened: as §1

[12] = compound: CC1=C(C2=C(C=C1)C(=O)C3=CC=CC=C3N2CCCN)C
Procedure, shortened: as §1

[13] = compound: CC1=C(C=C(C=C1)NC(=O)C2=CC(=CC=C2)C(C)(C)C#N)NC3=CC4=C(C=C3)N=CN(C4=O)C
Procedure, shortened: as §1

[14] = compound: CC1=C(C=C(C=C1)NC(=O)C2=CC(=CC=C2)N(C)C)NC(=O)C3=CC=C(C=C3)O
Procedure, shortened: as §1

[15] = compound: CC1=CC=C(C=C1)SC2=C3C=C(SC3=CN=C2)C(=O)N
Procedure, shortened: as §1

[16] = compound: CC1=C(C(CC(=O)N1)C2=CC=C(C=C2)C(F)(F)F)C(=O)NC3=C(C=C4C(=C3)C=NN4)F
Procedure, shortened: as §1

Measured: log2 fold change

KDM5B isoform 2 (UniProt Q9UGL1)
inactive: erlotinib 0.07 | [1] 0.03 | [2] 0.006 | [3] -0.021 | [4] 0.031 | [5] 0.012 | [6] -0.074 | [7] -0.035 | [8] 0.099 | IRAK-1-4 Inhibitor I 0.011 | ibrutinib -0.075 | [9] -0.046 | ralimetinib -0.083 | [10] -0.165 | [11] -0.072 | [12] -0.129 | [13] -0.016 | [14] -0.095 | [15] -0.098

KDM6A (UniProt O15550)
inactive: erlotinib -0.022 | [1] -0.039 | [2] 0.061 | [3] 0 | [4] 0.006 | [5] 0.023 | [6] -0.064 | [7] 0.004 | [8] 0.045 | IRAK-1-4 Inhibitor I 0.017 | ibrutinib -0.007 | [9] 0.012 | ralimetinib 0.003 | [10] -0.028 | [11] 0.025 | [16] -0.007 | [12] -0.065 | [13] 0.009 | [14] -0.004 | [15] 0.022

KIF16B isoform 2 (UniProt Q96L93)
inactive: erlotinib -0.02 | [1] -0.055 | [2] 0.085 | [3] -0.006 | [5] -0.016 | [6] 0.137 | [7] 0.226 | [8] -0.164 | IRAK-1-4 Inhibitor I 0.008 | ralimetinib 0.013 | [10] -0.05 | [11] -0.033 | [16] -0.007 | [12] 0.112 | [13] -0.005 | [14] 0.096

KIF20B isoform 2 (UniProt Q96Q89)
inactive: erlotinib -0.079 | [1] -0.135 | [2] 0.039 | [3] 0.049 | [5] 0.062 | [6] 0.024 | [7] 0.019 | [8] 0.083 | IRAK-1-4 Inhibitor I -0.028 | ralimetinib -0.014 | [10] -0.103 | [11] -0.089 | [16] 0.049 | [12] 0.115 | [13] 0.047 | [14] 0.033

KIF26A (UniProt Q9ULI4)
inactive: erlotinib 0.117 | [1] -0.053 | [2] -0.089 | [3] 0.012 | [4] -0.022 | [5] -0.019 | [6] 0.159 | [7] 0.108 | [8] 0.249 | IRAK-1-4 Inhibitor I 0.093 | ibrutinib -0.022 | ralimetinib -0.125 | [10] 0.084 | [11] 0.008 | [16] -0.02 | [12] 0.007 | [13] 0.033 | [14] -0.048

2 entries drawn at random from those above, as already listed:
KDM6A (UniProt O15550)
inactive: erlotinib -0.022 | [1] -0.039 | [2] 0.061 | [3] 0 | [4] 0.006 | [5] 0.023 | [6] -0.064 | [7] 0.004 | [8] 0.045 | IRAK-1-4 Inhibitor I 0.017 | ibrutinib -0.007 | [9] 0.012 | ralimetinib 0.003 | [10] -0.028 | [11] 0.025 | [16] -0.007 | [12] -0.065 | [13] 0.009 | [14] -0.004 | [15] 0.022

KIF26A (UniProt Q9ULI4)
inactive: erlotinib 0.117 | [1] -0.053 | [2] -0.089 | [3] 0.012 | [4] -0.022 | [5] -0.019 | [6] 0.159 | [7] 0.108 | [8] 0.249 | IRAK-1-4 Inhibitor I 0.093 | ibrutinib -0.022 | ralimetinib -0.125 | [10] 0.084 | [11] 0.008 | [16] -0.02 | [12] 0.007 | [13] 0.033 | [14] -0.048

(next part)

KLF1 (UniProt Q13351)
inactive: erlotinib -0.015 | [2] 0.009 | [4] 0.07 | [5] -0.253 | IRAK-1-4 Inhibitor I 0.012 | ibrutinib 0.029 | [9] -0.13 | ralimetinib 0.067 | [10] 0.058 | [11] -0.051 | [16] 0.096 | [14] 0.065 | [15] 0.01

KLHL22 (UniProt Q53GT1)
inactive: erlotinib 0.023 | [1] 0.12 | [2] -0.006 | [3] -0.123 | [5] -0.027 | [6] -0.031 | [7] 0.076 | [8] -0.034 | IRAK-1-4 Inhibitor I -0.032 | ralimetinib 0.035 | [10] -0.13 | [11] -0.003 | [12] -0.063 | [14] 0.01

KIF3C (UniProt O14782)
inactive: erlotinib 0.389 | [1] 0.05 | [2] -0.082 | [3] -0.116 | [5] 0.025 | [6] -0.117 | [7] 0.158 | [8] 0.146 | IRAK-1-4 Inhibitor I -0.023 | [9] -0.041 | ralimetinib -0.038 | [10] -0.032 | [11] -0.015 | [16] 0.03 | [12] -0.116 | [13] -0.007 | [14] 0.023 | [15] 0.044

KLHL7 (UniProt Q8IXQ5)
inactive: erlotinib -0.095 | [1] 0.062 | [2] 0.024 | [3] -0.162 | [5] 0.016 | [6] 0.29 | [7] -0.082 | [8] -0.012 | IRAK-1-4 Inhibitor I -0.05 | [9] 0.049 | ralimetinib 0.017 | [10] 0.015 | [11] 0.069 | [16] -0.108 | [12] -0.041 | [13] -0.075 | [14] 0.072 | [15] 0.029

KDM4A (UniProt O75164)
inactive: erlotinib 0.044 | [1] -0.028 | [2] 0.01 | [3] 0.024 | [4] -0.008 | [5] 0.029 | [6] -0.04 | [7] -0.021 | [8] -0.03 | IRAK-1-4 Inhibitor I 0.018 | ibrutinib 0.062 | ralimetinib 0.038 | [10] -0.04 | [11] -0.018 | [16] 0.008 | [12] 0 | [13] 0.031 | [14] -0.037

LAPTM4B (UniProt Q86VI4)
inactive: erlotinib -0.048 | [2] 0.029 | [4] 0.119 | [5] -0.107 | IRAK-1-4 Inhibitor I -0.052 | ibrutinib -0.028 | ralimetinib -0.007 | [10] -0.161 | [11] -0.074 | [14] 0.03

KRAS (UniProt P01116)
inactive: erlotinib -0.112 | [1] 0.033 | [2] 0.069 | [3] -0.052 | [5] -0.036 | [6] -0.041 | [7] -0.021 | [8] -0.008 | IRAK-1-4 Inhibitor I 0.007 | [9] 0.006 | ralimetinib -0.023 | [10] 0.063 | [11] -0.008 | [16] -0.037 | [12] 0.018 | [13] -0.048 | [14] 0.07 | [15] -0.058

KRAS isoform 2 (UniProt P01116)
inactive: erlotinib -0.038 | [2] 0.087 | [5] -0.071 | [7] -0.044 | [8] 0.015 | IRAK-1-4 Inhibitor I 0.033 | [9] 0.05 | ralimetinib 0.071 | [10] -0.078 | [11] -0.05 | [12] -0.011 | [13] -0.025 | [14] 0.004 | [15] 0.059

LAMP2 isoform 2 (UniProt P13473)
inactive: erlotinib -0.035 | [2] -0.01 | [4] -0.038 | [5] 0.036 | IRAK-1-4 Inhibitor I -0.076 | ibrutinib 0.058 | ralimetinib -0.026 | [10] 0.028 | [11] -0.054 | [16] -0.08 | [13] -0.091 | [14] 0.05

KLC1 isoform 10 (UniProt Q07866)
inactive: erlotinib 0.071 | [2] -0.165 | [4] 0.122 | [7] 0.241 | [8] -0.337 | ibrutinib 0.235 | [11] -0.129

KLHL20 (UniProt Q9Y2M5)
inactive: erlotinib 0.028 | [2] 0.007 | [4] 0.007 | [5] -0.024 | [7] -0.178 | [8] 0.013 | IRAK-1-4 Inhibitor I 0.01 | ibrutinib -0.074 | [9] 0.083 | ralimetinib 0.038 | [10] -0.05 | [11] 0.065 | [12] -0.021 | [13] -0.069 | [14] 0.006 | [15] 0.033

KRTCAP2 isoform 2 (UniProt Q8N6L1)
inactive: erlotinib 0.034 | [1] -0.032 | [2] -0.091 | [3] -0.095 | [5] -0.022 | [6] -0.03 | [7] 0.007 | [8] 0.041 | IRAK-1-4 Inhibitor I 0.095 | [9] 0.033 | ralimetinib 0.03 | [10] -0.304 | [11] -0.008 | [16] 0.07 | [12] -0.125 | [13] 0 | [14] -0.057 | [15] 0.012

KLHDC2 (UniProt Q9Y2U9)
inactive: erlotinib -0.087 | [1] 0.1 | [2] 0.024 | [3] 0.008 | [6] 0.055 | [11] 0.055 | [13] -0.091

KHNYN (UniProt O15037)
inactive: erlotinib 0.036 | [1] 0.017 | [2] 0.077 | [3] -0.019 | [4] 0.02 | [5] -0.057 | [6] -0.104 | [7] -0.022 | [8] 0.004 | IRAK-1-4 Inhibitor I 0.019 | ibrutinib -0.001 | ralimetinib 0.15 | [10] -0.038 | [11] -0.031 | [16] -0.335 | [12] -0.126 | [13] 0.019 | [14] 0.005

KIFC3 isoform 6 (UniProt Q9BVG8)
inactive: erlotinib 0.091 | [1] 0.069 | [2] 0.14 | [3] 0.004 | [4] 0.076 | [6] -0.077 | [7] -0.103 | [8] 0.158 | ibrutinib 0 | [11] 0.097 | [12] -0.231 | [13] 0.193
